Results are given in words; binding and its absence hold for the method and conditions named. In cells and extracts the contact can be indirect. Some results given as binding are weak or reduced against the parent protein; the word gives no strength. For some of these results: Sequences can lack the tags named with a protein.
B1: HA-tagged wild-type α1-chimerin (pEF-BOS, HA-tag at the N-terminus) (protein, mouse, UniProt Q91V57-2 1-334, looked up, not shown: small tags and cut ends)
chain: MPSKESWSGRKANRATVHKAKPEGRQQGLLIAALGMKLGSQKSSVTIWQPLKLFAYSQLTSLVRRATLKENEQIPKYEKVHNFKVHTFRGPHWCEYCANFMWGLIAQGVKCADCGLNVHKQCSKMVPNDCKPDLKHVKKVYSCDLTTLVKAHITKRPMVVDMCIREIESRGLNSEGLYRVSGFSDLIEDVKMAFDRDGEKADISVNMYEDINIITGALKLYFRDLPIPLITYDAYPKFIESAKIMDPDEQLETLHEALRSLPPAHCETLRYLMAHLKRVTLHEKENLMSAENLGIVFGPTLMRSPELDPMAALNDIRYQRLVVELLIKNEDILF
B2: endogenous α2-chimerin of wild-type mouse brain and spinal cord (protein, UniProt Q91V57 2-459, looked up)
chain: ALTLFDTDEYRPPVWKSYLYQLQQEAPHPRRVTCTCEVENRPKYYGREYHGMISREETDQLLSVAEGSYLIRESQRQPGTYTLALRFGSQTRNFRLYYDGKHFVGEKRFESIHDLVTDGLITLYIETKAAEYIAKMTINPIYEHIGYTTLNREPAYKQHMAVLKETHDEKEATGQDGVSEKRLTSLVRRATLKENEQIPKYEKVHNFKVHTFRGPHWCEYCANFMWGLIAQGVKCADCGLNVHKQCSKMVPNDCKPDLKHVKKVYSCDLTTLVKAHITKRPMVVDMCIREIESRGLNSEGLYRVSGFSDLIEDVKMAFDRDGEKADISVNMYEDINIITGALKLYFRDLPIPLITYDAYPKFIESAKIMDPDEQLETLHEALRSLPPAHCETLRYLMAHLKRVTLHEKENLMSAENLGIVFGPTLMRSPELDPMAALNDIRYQRLVVELLIKNEDILF
B3: HA-tagged wild-type α2-chimerin (pEF-BOS, HA-tag at the N-terminus) (protein, not shown: small tags and cut ends)
chain: MALTLFDTDEYRPPVWKSYLYQLQQEAPHPRRVTCTCEVENRPKYYGREYHGMISREETDQLLSVAEGSYLIRESQRQPGTYTLALRFGSQTRNFRLYYDGKHFVGEKRFESIHDLVTDGLITLYIETKAAEYIAKMTINPIYEHIGYTTLNREPAYKQHMAVLKETHDEKEATGQDGVSEKRLTSLVRRATLKENEQIPKYEKVHNFKVHTFRGPHWCEYCANFMWGLIAQGVKCADCGLNVHKQCSKMVPNDCKPDLKHVKKVYSCDLTTLVKAHITKRPMVVDMCIREIESRGLNSEGLYRVSGFSDLIEDVKMAFDRDGEKADISVNMYEDINIITGALKLYFRDLPIPLITYDAYPKFIESAKIMDPDEQLETLHEALRSLPPAHCETLRYLMAHLKRVTLHEKENLMSAENLGIVFGPTLMRSPELDPMAALNDIRYQRLVVELLIKNEDILF
B4: HA-tagged mfy α2-chimerin (exon 9 deleted) (protein, not shown: small tags and cut ends)
chain: MALTLFDTDEYRPPVWKSYLYQLQQEAPHPRRVTCTCEVENRPKYYGREYHGMISREETDQLLSVAEGSYLIRESQRQPGTYTLALRFGSQTRNFRLYYDGKHFVGEKRFESIHDLVTDGLITLYIETKAAEYIAKMTINPIYEHIGYTTLNREPAYKQHMAVLKETHDEKEATGQDGVSEKRLTSLVRRATLKENEQIPKYEKVHNFKVHTFRGPHWCEYCANFMWGLIAQGVKCAGLNSEGLYRVSGFSDLIEDVKMAFDRDGEKADISVNMYEDINIITGALKLYFRDLPIPLITYDAYPKFIESAKIMDPDEQLETLHEALRSLPPAHCETLRYLMAHLKRVTLHEKENLMSAENLGIVFGPTLMRSPELDPMAALNDIRYQRLVVELLIKNEDILF
B5: GST-fused full-length α2-chimerin (recombinant, from E. coli) (protein, mouse, UniProt Q91V57 1-459, looked up, not shown: a dimerising Fc or GST)
chain: B3 chain

By UniProt entry, the sequences of proteins in these tests, tags left out. Where a name states a change or a piece, a line headed by the entry shows the natural chain unless it says otherwise. Chains listed by the source or under a name are the forms on record and can include a tag or linker. Residues count along the entry.
Myc-tagged EphA4 (wild-type, from B6 mouse brain cDNA, pcDNA3 with Igk-Myc-tag at the N-terminus) (Q03137, residues 20-986): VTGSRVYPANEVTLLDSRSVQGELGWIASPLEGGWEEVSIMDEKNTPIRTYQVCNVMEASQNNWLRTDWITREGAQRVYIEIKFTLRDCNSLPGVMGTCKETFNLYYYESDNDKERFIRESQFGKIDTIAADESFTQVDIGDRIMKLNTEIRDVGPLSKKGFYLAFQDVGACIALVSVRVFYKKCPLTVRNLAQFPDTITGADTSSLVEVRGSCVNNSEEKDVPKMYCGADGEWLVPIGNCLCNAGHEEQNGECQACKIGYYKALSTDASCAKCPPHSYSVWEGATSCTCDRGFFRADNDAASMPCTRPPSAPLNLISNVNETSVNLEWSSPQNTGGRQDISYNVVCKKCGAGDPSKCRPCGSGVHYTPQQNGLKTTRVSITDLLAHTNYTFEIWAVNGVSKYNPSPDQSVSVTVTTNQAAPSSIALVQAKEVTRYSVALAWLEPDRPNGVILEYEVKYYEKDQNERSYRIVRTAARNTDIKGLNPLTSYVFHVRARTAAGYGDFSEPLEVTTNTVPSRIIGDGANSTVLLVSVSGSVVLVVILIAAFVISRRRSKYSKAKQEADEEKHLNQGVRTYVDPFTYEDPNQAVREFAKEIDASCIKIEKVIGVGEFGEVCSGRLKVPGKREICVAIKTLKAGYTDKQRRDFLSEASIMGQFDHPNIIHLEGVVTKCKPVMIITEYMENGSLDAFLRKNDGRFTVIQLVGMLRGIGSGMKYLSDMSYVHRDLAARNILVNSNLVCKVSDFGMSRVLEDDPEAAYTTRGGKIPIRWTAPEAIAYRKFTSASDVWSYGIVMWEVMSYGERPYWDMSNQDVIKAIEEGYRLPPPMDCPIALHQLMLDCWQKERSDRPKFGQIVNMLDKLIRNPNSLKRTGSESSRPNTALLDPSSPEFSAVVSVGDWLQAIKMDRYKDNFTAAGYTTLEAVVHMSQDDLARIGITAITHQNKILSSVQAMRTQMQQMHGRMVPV
Myc-tagged EphA4^FF (Y596F/Y602F) mutant (Q03137, form named): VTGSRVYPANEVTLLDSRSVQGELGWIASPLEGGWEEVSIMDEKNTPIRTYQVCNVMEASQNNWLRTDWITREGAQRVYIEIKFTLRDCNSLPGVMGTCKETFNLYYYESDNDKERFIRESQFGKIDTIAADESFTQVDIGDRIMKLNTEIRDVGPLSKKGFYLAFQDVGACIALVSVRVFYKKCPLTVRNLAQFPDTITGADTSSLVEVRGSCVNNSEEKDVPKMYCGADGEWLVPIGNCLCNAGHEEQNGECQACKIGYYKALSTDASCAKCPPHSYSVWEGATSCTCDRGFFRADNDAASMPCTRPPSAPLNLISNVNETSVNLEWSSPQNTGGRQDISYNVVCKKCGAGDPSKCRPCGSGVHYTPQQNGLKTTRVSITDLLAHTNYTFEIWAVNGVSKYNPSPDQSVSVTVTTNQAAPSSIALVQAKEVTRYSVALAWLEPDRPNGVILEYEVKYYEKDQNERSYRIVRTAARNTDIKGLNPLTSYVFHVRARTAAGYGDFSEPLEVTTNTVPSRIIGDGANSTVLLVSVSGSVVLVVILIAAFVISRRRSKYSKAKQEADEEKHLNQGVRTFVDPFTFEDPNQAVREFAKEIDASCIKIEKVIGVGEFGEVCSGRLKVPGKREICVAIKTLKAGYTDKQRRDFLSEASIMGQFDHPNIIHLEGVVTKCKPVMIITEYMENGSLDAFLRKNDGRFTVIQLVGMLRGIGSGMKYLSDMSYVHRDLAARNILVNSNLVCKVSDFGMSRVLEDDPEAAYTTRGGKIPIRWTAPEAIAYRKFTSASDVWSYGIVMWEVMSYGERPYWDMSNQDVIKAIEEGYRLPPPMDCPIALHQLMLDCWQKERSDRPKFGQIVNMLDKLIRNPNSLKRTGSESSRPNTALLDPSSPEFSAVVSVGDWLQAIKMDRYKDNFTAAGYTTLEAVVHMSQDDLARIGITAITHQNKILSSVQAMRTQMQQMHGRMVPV

What was measured:
[1] = biological target: Myc-tagged EphA4^FF (Y596F/Y602F) mutant (mouse) (UniProt Q03137); test: co-precipitation with ephrinA1-Fc from transfected 293T lysates, anti-HA / anti-Myc immunoblot
[2] = biological target: Myc-tagged EphA4 (wild-type, from B6 mouse brain cDNA, pcDNA3 with Igk-Myc-tag at the N-terminus) (mouse) (UniProt Q03137); test: as above
[3] = biological target: Myc-tagged EphA4^FF (Y596F/Y602F) mutant (mouse) (UniProt Q03137); test: co-precipitation with ephrinA1-Fc from transfected 293T lysates, immunoblot
[4] = biological target: Myc-tagged EphA4 (wild-type, from B6 mouse brain cDNA, pcDNA3 with Igk-Myc-tag at the N-terminus) (mouse) (UniProt Q03137); test: as above
[5] = biological target: endogenous EphA4 of wild-type mouse cortex (mouse) (UniProt Q03137); test: co-immunoprecipitation with anti-α2-chimerin antibody from P3 mouse cortex lysates, immunoblot
[6] = biological target: endogenous EphA4 of wild-type mouse cortex (mouse) (UniProt Q03137); test: co-immunoprecipitation with α-chimerin-specific antibody from developing mouse motor cortex lysates, immunoblot
[7] = biological target: Myc-tagged EphA4 (wild-type, from B6 mouse brain cDNA, pcDNA3 with Igk-Myc-tag at the N-terminus) (mouse) (UniProt Q03137); test: GST-fusion pull-down from lysate of HEK293T cells with Myc-EphA4, anti-Myc immunoblot

Row | binding [1] | binding [2] | binding [3] | binding [4] | binding [5] | binding [6] | binding [7] | Binder
1 | binds | binds | binds | binds |  |  |  | B1
2 |  |  |  |  | binds | binds |  | B2
3 | binds | binds | binds | binds |  |  |  | B3
4 |  | binds |  | binds |  |  |  | B4
5 |  |  |  |  |  |  | binds | B5

Source: patent US20100242126A1
